# According to the M2OR odorant receptor database:
# Chains of the proteins cited; added tags and fusions are not shown. Chains listed by the source or under a name are the forms on record and can include a tag or linker.
# OR7C1, as listed by the source: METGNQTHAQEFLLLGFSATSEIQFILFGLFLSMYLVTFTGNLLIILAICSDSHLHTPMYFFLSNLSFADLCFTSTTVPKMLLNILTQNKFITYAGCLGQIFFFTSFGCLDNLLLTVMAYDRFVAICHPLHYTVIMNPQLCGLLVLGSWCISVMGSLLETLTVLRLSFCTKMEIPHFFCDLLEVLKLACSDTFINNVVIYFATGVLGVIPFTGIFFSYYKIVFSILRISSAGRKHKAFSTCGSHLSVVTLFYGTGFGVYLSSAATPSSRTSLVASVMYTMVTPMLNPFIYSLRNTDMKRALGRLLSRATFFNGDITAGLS
# This is a selection; strong and weak results do not stand in their true shares. The calls were merged from several studies; some rest on single wells. This is one part of the list.
# Tests used:
# Details in all cases: stereoisomer not certain
# OR6M1 (Homo sapiens) = target: T1, OR6M1 (Homo sapiens) (UniProt Q8NGM8)
# T1 sequence (whole entry): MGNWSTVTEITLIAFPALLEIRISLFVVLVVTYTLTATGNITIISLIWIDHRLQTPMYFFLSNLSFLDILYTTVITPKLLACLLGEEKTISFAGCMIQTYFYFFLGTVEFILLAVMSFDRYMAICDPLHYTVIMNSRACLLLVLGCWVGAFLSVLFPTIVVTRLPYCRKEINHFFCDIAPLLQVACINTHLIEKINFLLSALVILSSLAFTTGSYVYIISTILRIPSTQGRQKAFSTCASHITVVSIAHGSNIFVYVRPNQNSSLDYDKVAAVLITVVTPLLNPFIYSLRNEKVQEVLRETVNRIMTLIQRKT
# Summary of the method: (§1)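 Each entry records the cell line, G-protein, co-transfected protein and tags used. Methods varied with the source, often transient luciferase assays in mammalian cell lines. A receptor–molecule pair is called responsive (active) if the original authors judged its signal statistically different from baseline and non-responsive (inactive) otherwise.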
# OR6N1 = system: T2, OR6N1
# T2 sequence (whole entry): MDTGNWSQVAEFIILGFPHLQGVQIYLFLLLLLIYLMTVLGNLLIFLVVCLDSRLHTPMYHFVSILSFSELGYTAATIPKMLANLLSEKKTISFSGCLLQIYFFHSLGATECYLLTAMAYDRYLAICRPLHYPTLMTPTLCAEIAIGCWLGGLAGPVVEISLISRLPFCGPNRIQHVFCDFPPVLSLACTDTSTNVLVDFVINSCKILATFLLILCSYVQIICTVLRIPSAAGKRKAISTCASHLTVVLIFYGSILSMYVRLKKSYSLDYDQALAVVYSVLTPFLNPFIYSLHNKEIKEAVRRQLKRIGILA
# Summary of the method: as §1
# OR6N2 (Homo sapiens) = target: T3, OR6N2 (Homo sapiens) (UniProt Q8NGY6)
# T3 sequence (whole entry): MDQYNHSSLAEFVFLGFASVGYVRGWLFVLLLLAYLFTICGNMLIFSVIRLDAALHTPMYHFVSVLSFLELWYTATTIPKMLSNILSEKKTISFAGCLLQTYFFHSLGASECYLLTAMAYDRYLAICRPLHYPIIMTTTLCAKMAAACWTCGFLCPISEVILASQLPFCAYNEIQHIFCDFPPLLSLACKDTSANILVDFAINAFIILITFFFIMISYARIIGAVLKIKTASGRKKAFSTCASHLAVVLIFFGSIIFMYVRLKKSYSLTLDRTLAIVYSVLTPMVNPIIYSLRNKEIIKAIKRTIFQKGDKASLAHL
# Summary of the method: as §1
# OR6P1 (Homo sapiens) = target: T4, OR6P1 (Homo sapiens) (UniProt Q8NGX9)
# T4 sequence (whole entry): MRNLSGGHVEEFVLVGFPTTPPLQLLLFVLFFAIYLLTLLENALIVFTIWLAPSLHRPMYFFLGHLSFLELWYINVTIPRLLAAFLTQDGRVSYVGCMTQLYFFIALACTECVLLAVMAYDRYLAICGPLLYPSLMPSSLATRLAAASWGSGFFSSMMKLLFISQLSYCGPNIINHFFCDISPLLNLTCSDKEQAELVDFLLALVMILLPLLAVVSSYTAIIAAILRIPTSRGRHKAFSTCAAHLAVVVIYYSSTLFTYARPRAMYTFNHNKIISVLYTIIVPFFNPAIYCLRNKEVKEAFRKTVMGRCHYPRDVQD
# Summary of the method: as §1
# OR6Q1 (Homo sapiens) = target: T5, OR6Q1 (Homo sapiens) (UniProt Q8NGQ2)
# T5 sequence (whole entry): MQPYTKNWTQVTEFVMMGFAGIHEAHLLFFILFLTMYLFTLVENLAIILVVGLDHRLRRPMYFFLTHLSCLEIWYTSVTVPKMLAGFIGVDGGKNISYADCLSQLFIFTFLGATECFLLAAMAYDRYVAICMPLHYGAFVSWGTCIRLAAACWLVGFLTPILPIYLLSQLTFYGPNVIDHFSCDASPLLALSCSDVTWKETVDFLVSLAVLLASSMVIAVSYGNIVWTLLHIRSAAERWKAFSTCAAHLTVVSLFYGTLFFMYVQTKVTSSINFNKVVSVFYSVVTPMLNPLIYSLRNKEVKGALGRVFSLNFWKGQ
# Summary of the method: as §1
# OR6S1 = system: T6, OR6S1
# T6 sequence (whole entry): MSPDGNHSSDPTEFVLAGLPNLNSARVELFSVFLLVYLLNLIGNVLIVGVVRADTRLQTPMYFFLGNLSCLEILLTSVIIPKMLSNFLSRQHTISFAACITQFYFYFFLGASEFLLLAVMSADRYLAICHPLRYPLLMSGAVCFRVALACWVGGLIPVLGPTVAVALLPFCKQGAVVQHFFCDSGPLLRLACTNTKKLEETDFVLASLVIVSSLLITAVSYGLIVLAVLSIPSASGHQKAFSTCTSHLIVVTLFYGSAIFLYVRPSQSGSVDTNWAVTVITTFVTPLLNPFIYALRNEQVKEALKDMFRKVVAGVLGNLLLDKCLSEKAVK
# Summary of the method: as §1
# OR6T1 = system: T7, OR6T1
# T7 sequence (whole entry): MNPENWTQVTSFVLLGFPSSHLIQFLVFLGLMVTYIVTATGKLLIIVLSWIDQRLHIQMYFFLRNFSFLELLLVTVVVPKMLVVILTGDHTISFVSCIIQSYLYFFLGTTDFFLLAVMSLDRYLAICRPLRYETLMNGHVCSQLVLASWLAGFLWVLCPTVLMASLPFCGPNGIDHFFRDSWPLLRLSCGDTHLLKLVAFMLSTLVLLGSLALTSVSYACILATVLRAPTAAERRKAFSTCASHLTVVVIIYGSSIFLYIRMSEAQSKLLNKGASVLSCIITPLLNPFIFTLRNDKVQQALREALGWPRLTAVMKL
# Summary of the method: as §1
# OR6V1 (Homo sapiens) = target: T8, OR6V1 (Homo sapiens) (UniProt Q8N148)
# T8 sequence (whole entry): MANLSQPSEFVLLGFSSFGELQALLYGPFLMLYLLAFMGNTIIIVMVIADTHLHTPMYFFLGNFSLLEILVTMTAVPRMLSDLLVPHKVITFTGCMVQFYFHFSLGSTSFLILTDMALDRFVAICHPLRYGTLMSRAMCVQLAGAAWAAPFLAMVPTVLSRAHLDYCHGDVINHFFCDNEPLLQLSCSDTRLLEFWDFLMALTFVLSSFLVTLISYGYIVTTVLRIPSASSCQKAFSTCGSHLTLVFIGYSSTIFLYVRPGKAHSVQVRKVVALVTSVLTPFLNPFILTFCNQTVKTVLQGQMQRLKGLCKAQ
# Summary of the method: as §1
# OR6X1 (Homo sapiens) = target: T9, OR6X1 (Homo sapiens) (UniProt Q8NH79)
# T9 sequence (whole entry): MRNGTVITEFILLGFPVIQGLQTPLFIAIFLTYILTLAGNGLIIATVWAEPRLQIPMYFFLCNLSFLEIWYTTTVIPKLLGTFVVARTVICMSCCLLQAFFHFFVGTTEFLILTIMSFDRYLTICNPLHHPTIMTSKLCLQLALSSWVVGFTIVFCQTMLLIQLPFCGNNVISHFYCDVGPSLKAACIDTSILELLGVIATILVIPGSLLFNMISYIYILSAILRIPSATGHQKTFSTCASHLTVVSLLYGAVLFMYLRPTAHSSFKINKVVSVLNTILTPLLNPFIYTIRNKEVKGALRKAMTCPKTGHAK
# Summary of the method: as §1
# OR6Y1 = system: T10, OR6Y1
# T10 sequence (whole entry): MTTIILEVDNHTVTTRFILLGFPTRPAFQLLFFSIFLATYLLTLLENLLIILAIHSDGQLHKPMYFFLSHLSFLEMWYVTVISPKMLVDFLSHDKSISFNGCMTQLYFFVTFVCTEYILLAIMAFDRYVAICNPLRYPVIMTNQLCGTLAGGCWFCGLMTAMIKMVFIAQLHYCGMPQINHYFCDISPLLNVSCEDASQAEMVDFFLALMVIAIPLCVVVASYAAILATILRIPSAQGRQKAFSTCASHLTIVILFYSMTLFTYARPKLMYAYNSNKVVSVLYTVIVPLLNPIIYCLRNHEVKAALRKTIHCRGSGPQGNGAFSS
# Summary of the method: as §1
# OR7A10 (Homo sapiens) = target: T11, OR7A10 (Homo sapiens) (UniProt O76100)
# T11 sequence (whole entry): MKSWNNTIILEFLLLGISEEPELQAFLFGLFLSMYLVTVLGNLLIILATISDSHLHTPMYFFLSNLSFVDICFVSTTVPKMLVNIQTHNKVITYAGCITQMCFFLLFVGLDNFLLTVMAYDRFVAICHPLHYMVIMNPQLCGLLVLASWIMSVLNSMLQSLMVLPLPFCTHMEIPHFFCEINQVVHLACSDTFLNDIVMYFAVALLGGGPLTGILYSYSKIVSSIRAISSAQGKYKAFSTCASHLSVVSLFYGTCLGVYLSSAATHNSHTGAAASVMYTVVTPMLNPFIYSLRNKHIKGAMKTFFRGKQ
# Summary of the method: as §1
# OR7A17 (Homo sapiens) = target: T12, OR7A17 (Homo sapiens) (UniProt O14581)
# T12 sequence (whole entry): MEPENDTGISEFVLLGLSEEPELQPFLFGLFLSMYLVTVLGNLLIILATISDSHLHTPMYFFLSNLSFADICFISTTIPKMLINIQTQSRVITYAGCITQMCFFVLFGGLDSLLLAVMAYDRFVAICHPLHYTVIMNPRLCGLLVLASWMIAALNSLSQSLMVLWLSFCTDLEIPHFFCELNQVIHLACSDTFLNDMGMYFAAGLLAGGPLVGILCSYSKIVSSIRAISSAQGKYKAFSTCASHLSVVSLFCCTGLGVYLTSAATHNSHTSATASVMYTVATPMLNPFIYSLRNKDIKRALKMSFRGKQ
# Summary of the method: as §1
# OR7A5 (Homo sapiens) = target: T13, OR7A5 (Homo sapiens) (UniProt Q15622)
# T13 sequence (whole entry): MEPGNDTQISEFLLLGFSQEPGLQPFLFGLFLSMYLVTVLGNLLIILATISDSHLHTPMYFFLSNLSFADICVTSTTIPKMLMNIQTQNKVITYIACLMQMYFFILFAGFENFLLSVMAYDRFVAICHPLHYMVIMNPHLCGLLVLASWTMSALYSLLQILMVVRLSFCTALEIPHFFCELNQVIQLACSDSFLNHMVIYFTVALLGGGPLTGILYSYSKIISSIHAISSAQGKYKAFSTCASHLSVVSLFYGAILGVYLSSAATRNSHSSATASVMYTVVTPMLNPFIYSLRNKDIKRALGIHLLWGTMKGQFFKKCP
# Summary of the method: as §1
# OR7C1 [1] = system: T14, OR7C1
# T14 sequence (whole entry): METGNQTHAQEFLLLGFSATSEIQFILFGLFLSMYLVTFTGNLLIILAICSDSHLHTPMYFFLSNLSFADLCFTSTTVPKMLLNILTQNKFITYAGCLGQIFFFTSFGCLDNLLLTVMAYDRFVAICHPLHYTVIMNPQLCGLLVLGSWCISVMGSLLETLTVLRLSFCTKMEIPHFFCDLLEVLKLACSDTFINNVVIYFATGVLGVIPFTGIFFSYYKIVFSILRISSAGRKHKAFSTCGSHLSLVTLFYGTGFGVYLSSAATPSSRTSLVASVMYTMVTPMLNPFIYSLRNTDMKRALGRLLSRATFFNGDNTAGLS
# Summary of the method: as §1
# OR7C1 (Homo sapiens) = OR7C1 (Homo sapiens) (UniProt O76099)
# Summary of the method: as §1
# OR7C1 [2] = system: OR7C1; remark: listed apart in the source
# Summary of the method: as §1
Structure (SMILES),odorant receptor agonist call (OR6M1 (Homo sapiens)),odorant receptor agonist call (OR6N1),odorant receptor agonist call (OR6N2 (Homo sapiens)),odorant receptor agonist call (OR6P1 (Homo sapiens)),odorant receptor agonist call (OR6Q1 (Homo sapiens)),odorant receptor agonist call (OR6S1),odorant receptor agonist call (OR6T1),odorant receptor agonist call (OR6V1 (Homo sapiens)),odorant receptor agonist call (OR6X1 (Homo sapiens)),odorant receptor agonist call (OR6Y1),odorant receptor agonist call (OR7A10 (Homo sapiens)),odorant receptor agonist call (OR7A17 (Homo sapiens)),odorant receptor agonist call (OR7A5 (Homo sapiens)),odorant receptor agonist call (OR7C1 [1]),odorant receptor agonist call (OR7C1 (Homo sapiens)),odorant receptor agonist call (OR7C1 [2])
CC(C)CCC(=O)O,inactive,inactive,inactive,inactive,inactive,inactive,inactive,inactive,inactive,inactive,inactive,inactive,inactive,inactive,–,–
CCCCCCCCOC(C)=O,inactive,inactive,inactive,inactive,inactive,inactive,inactive,inactive,inactive,inactive,inactive,inactive,inactive,inactive,–,–
C=CCc1ccc(OC(C)=O)c(OC)c1,inactive,inactive,inactive,inactive,inactive,inactive,active,active,active,inactive,inactive,inactive,inactive,inactive,–,–
CC12C=CCC1C1CCC3=CC(=O)CCC3(C)C1CC2 (stereo unspecified),inactive,inactive,inactive,inactive,inactive,inactive,inactive,inactive,inactive,inactive,inactive,inactive,inactive,active,inactive,active
CC(C)C=O,inactive,inactive,inactive,inactive,inactive,inactive,inactive,inactive,inactive,inactive,inactive,inactive,inactive,inactive,–,–
CC(=O)OC(C)(C)C1CC=C(C)CC1 (stereo unspecified),inactive,inactive,inactive,inactive,inactive,inactive,inactive,inactive,inactive,inactive,inactive,inactive,inactive,inactive,–,–
